Earlier results in publication PMC9693145, “Optimization of Extraction Conditions and Cytotoxic Activity of Rapanone in Comparison to Its Homologue, Embelin” (Molecules, 2022).

System: PC3
Details: read-out: IC50 of doxorubicin towards PC3 lines; cited from earlier work

COc1cccc2c1C(=O)c1c(O)c3c(c(O)c1C2=O)C[C@@](O)(C(=O)CO)C[C@@H]3O[C@H]1C[C@H](N)[C@H](O)[C@H](C)O1 [Doxorubicin]
IC50: 510 nM
